The results in this text go back to article PMC8641933.

These are yes or no findings as the source states them, for the method shown. Binding seen in cells or lysates may run through a third protein. Some results given as binding are weak or reduced against the parent protein; the word gives no strength. Tags and fused reporters may be left off the sequences shown.

The test deals with wild-type FOXN1 (human), FLAG- or myc-tagged (human) (UniProt O15353). Nature of the test: co-IP; Lysates of cotransfected 4D6 cells incubated with anti-FLAG or anti-Myc antibodies and protein G or A magnetic beads, 2 hours at 4°C. Western blot for the other tag. With or without coexpressed unlabeled Δ550 FOXN1. In general terms: In western blotting, separated proteins are transferred to a membrane and probed.

B1: wild-type FOXN1 (human), FLAG- or myc-tagged (protein, UniProt O15353 1-648)
chain: MVSLPPPQSDVTLPGPTRLEGERQGDLMQAPGLPGSPAPQSKHAGFSCSSFVSDGPPERTPSLPPHSPRIASPGPEQVQGHCPAGPGPGPFRLSPSDKYPGFGFEEAAASSPGRFLKGSHAPFHPYKRPFHEDVFPEAETTLALKGHSFKTPGPLEAFEEIPVDVAEAEAFLPGFSAEAWCNGLPYPSQEHGPQVLGSEVKVKPPVLESGAGMFCYQPPLQHMYCSSQPPFHQYSPGGGSYPIPYLGSSHYQYQRMAPQASTDGHQPLFPKPIYSYSILIFMALKNSKTGSLPVSEIYNFMTEHFPYFKTAPDGWKNSVRHNLSLNKCFEKVENKSGSSSRKGCLWALNPAKIDKMQEELQKWKRKDPIAVRKSMAKPEELDSLIGDKREKLGSPLLGCPPPGLSGSGPIRPLAPPAGLSPPLHSLHPAPGPIPGKNPLQDLLMGHTPSCYGQTYLHLSPGLAPPGPPQPLFPQPDGHLELRAQPGTPQDSPLPAHTPPSHSAKLLAEPSPARTMHDTLLPDGDLGTDLDAINPSLTDFDFQGNLWEQLKDDSLALDPLVLVTSSPTSSSMPPPQPPPHCFPPGPCLTETGSGAGDLAAPGSGGSGALGDLHLTTLYSAFMELEPTPPTAPAGPSVYLSPSSKPVALA
Consider B1, for which the binding result was “binds”.
